Values from PubChem BioAssay AID1159578 (Peter MacCallum Cancer Centre, 2015)
Here is one part, drawn at random, of about 18,000 reagents tested. About 1,030 of them (5.7%) count as active. 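Inactive calls also include pools with fewer than 3300 nuclei, whose migration was not assessed.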 The raw values are shown without normalisation. Not all columns of the deposit are shown. Reagent sequences are not shown.

- Aim: 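Genome-wide hunt for genes controlling movement of lymphatic endothelial cells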 (primary screen)
- System: human lymphatic endothelial cells
- Reagent: siRNA pool against human genes, 40 nM
- Time to read-out: 48 h after transfection
- Measurement: 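High-content imaging of dye-stained cells in a scratch assay measures filled wound area and nuclei per well; duplicate means given as ratio to mock and robust z-score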
- Direction: migration robust z-score: higher = faster migration into the scratch; nuclei per well: higher = more cells in the well
- Active means: 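Pools averaging fewer than 3300 nuclei are never called; remaining pools count as changed when migration robust z lies outside -2 to 2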
- Meaning of the calls: active = migration changed; inactive = no migration change, or too few cells

Silencing of TRIM11 resulted in: migration robust z-score -0.03; nuclei per well, duplicate mean 6543; inactive.
Silencing of ISOC2 came out at: migration robust z-score -1.97; nuclei per well, duplicate mean 5481; inactive.
With knock-down of KIF12, the screen gave migration robust z-score -2.7; nuclei per well, duplicate mean 3276; inactive.
With knock-down of EML5 the results were migration robust z-score -0.05; nuclei per well, duplicate mean 5966; inactive.
With knock-down of TREX1, the screen gave migration robust z-score 1.12; nuclei per well, duplicate mean 5796; inactive.
After knock-down of B4GALT6, the record shows migration robust z-score 2.25; nuclei per well, duplicate mean 6613; active.
After knock-down of LTAP1, the record shows migration robust z-score 0.29; nuclei per well, duplicate mean 5505; inactive.
Against UPP1 the deposit lists migration robust z-score 0.26; nuclei per well, duplicate mean 6457; inactive.
Depletion of TMCO2 came out at: migration robust z-score -0.65; nuclei per well, duplicate mean 4964; inactive.
Depletion of MTMR9 gave: migration robust z-score 1.04; nuclei per well, duplicate mean 6481; inactive.
Against RAB13, the entry reads migration robust z-score 1.03; nuclei per well, duplicate mean 5182; inactive.
Against LIN9, the values are migration robust z-score 0.6; nuclei per well, duplicate mean 6632; inactive.
TRAF6 showed migration robust z-score 0.18; nuclei per well, duplicate mean 6100; inactive.
With knock-down of FBXW2 the results were migration robust z-score -0.34; nuclei per well, duplicate mean 5874; inactive.

Records above called active (1):
B4GALT6 → migration robust z-score = 2.25; nuclei per well, duplicate mean = 6613; call = active
